# Assay results as given in PubChem BioAssay AID2685 (National Center for Advancing Translational Sciences (NCATS), 2010).
# The list shows a part of the results. The main result of the screen is listed elsewhere. These columns were measured beside it and carry no call. Compounds called inactive in the main read-out are mostly missing here. The note in brackets gives the kind of curve behind each potency; many fits are weak.
# Assay: qHTS Assay for Lipid Storage Modulators in Drosophila S3 Cells;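 for cell number change: cells counted by Cell Tracker Red CMTPX staining in the red channel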
# Conditions: BODIPY lipid droplet fluorescence, 18-24 h; for cell number change: measured here: cell count max response, cells fed with added oleic acid
# Summary of the method: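 Laser-scanning cytometry quantifies lipid droplet accumulation (500–530 nm total intensity; droplet/cell object ratio) in oleic acid-fed (400 uM added) Drosophila S3 cells treated with a concentration series. 20 uM Triacsin C defined 100% inhibition.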
# [1] = measured here: lipid fluorescence (Fed channel) AC50, cells fed with added oleic acid
# [2] = measured here: cell number channel AC50, cells fed with added oleic acid
Structure (SMILES),cell number change,AC50 [1],AC50 [2]
Clc1ccc2c(c1)C(OC1CN3CCC1CC3)c1ccccc1CS2 (configuration not stated),-7.26%,–,–
CCN(CC)CCN=Cc1c(O)n(CCC2=CCCCC2)c(=O)[nH]c1=O,–,"29.1 µM [falling, single point]",–
C=C[C@H]1CN2CC[C@H]1C[C@@H]2[C@@H](O)c1ccnc2ccccc12,5.65%,–,"0.92 µM [rising, full curve, poor fit]"
CCCn1cc2c3c(cccc31)C1CC(C)CN(C)C1C2 (configuration not stated),4.78%,"29.1 µM [rising, single point]",–
CCCn1cc(C(=O)O)cn1,-7.91%,"0.082 µM [falling, full curve, poor fit]",–
CCOC(=O)CC1=C(C(=O)OCC)C2(C(=O)N1)C(C(=O)OC)=C(N)Oc1ccccc12 (configuration not stated),-8.38%,–,–
Cn1cccc1/C=C1/C(=O)NC(=O)N(Cc2ccccc2)C1=O,-15.4%,–,–
Oc1ccccc1/C=N/NP(=S)(c1ccccc1)c1ccccc1,–,"6.51 µM [falling, single point]","6.51 µM [falling, single point]"
COc1ccc(CN2CCN(Cc3ccccc3)CC2)c(OC)c1,1.1%,"29.1 µM [rising, single point]",–
CCOc1ccc(-c2cc(C)[n+](CCN3CCOCC3)c(-c3ccc(OCC)cc3)c2)cc1,-27.5%,"0.291 µM [falling, single point]",–
OC(CNC1CCCCC1)C(F)(F)F (configuration not stated),-24.9%,"0.731 µM [falling, partial curve, poor fit]","0.291 µM [falling, full curve, poor fit]"
CCNC(=O)NNC(=O)C1CC(c2cccnc2)=NO1 (configuration not stated),-47.2%,–,"20.6 µM [falling, single point]"
CC(Cc1ccccc1)NC(N)=O (configuration not stated),7.81%,"0.411 µM [falling, partial curve, poor fit]",–
CN(C)C(=O)Oc1cc(=O)n2c3c(cccc13)CCC2,19.1%,"18.4 µM [rising, single point]",–
O=C(c1ccc(Cl)cc1)C1CCCN(Cc2ccc3ncccc3c2)C1 (configuration not stated),-20.7%,"29.1 µM [falling, single point]",–
CN1CCN(C(=S)SCC(=O)Nc2ccc(Cl)cc2C(=O)c2ccccc2)CC1,46.7%,"11.6 µM [rising, partial curve, poor fit]","25.9 µM [rising, single point]"
O=Cc1c(C(=O)O)n(Cc2ccccc2F)c2ccccc12,20.5%,–,–
O=C1CC(=O)N(c2ccccc2F)C(=O)N1,4.17%,"29.1 µM [falling, single point]",–
CN1CCCC(C(=O)c2ccc(Cl)cc2)C1 (configuration not stated),-22.3%,–,"5.8 µM [falling, single point]"
Cc1ccccc1C(O)(Cc1ccccc1)C1CN2CCC1CC2 (configuration not stated),4.04%,"6.51 µM [falling, single point]",–
CC(Cl)(Cl)/C(=N/P(=S)(N1CCOCC1)N1CCOCC1)N1CCOCC1,-10.2%,"1.3 µM [falling, full curve, poor fit]","0.0058 µM [falling, full curve, poor fit]"
CC(C)c1ccc(N2C(=O)NC(=O)/C(=C\C=C\c3ccco3)C2=O)cc1,-56.2%,"20.6 µM [falling, single point]","20.6 µM [falling, single point]"
COC(=O)C1=C(c2c(C)noc2C)C[C@@H]2CC[C@H]1N2C(=O)NCCOc1ccccc1,6.08%,–,"1.84 µM [rising, partial curve, poor fit]"
Cc1nn(Cc2c(Cl)cccc2Cl)c(Cl)c1C(=O)O,–,–,"0.58 µM [rising, partial curve]"
COC(=O)C1=C(c2cc3ccccc3s2)C[C@@H]2CC[C@H]1N2C,2.7%,"0.259 µM [rising, full curve, poor fit]",–
Cc1ccccc1CCNCc1ccc(Br)cc1,-57.3%,"29.1 µM [falling, single point]","29.1 µM [falling, single point]"
CCCCCCN1CCN(c2ccccc2Cl)CC1,-12%,–,–

Structure (SMILES),cell number change,AC50 [1],AC50 [2]
COc1ccc(-n2nc(C(=O)NCC(=O)N3CCC4(CC3)OCCO4)c3ccccc3c2=O)cc1OC,-15.9%,"0.92 µM [falling, full curve]",–
CN1CC(C(=O)c2cccc(C(F)(F)F)c2)C(c2ccc(Cl)cc2)C1 (configuration not stated),-58.3%,"23.1 µM [falling, partial curve]","20.6 µM [falling, partial curve]"
COC(=O)C1=C(c2ccc(F)cc2OCc2ccccc2)C[C@@H]2CC[C@H]1N2C(=O)NCc1ccccc1C(F)(F)F,-4.05%,"1.84 µM [falling, partial curve, poor fit]","0.82 µM [falling, full curve, poor fit]"
CCCCn1c(O)c(C(CC)=NCc2cccnc2)c(=O)[nH]c1=O,–,"25.9 µM [falling, partial curve, poor fit]",–
COc1cc(O)cc2c1C(=O)O[C@@H](C)CCCC(=O)CCCCC2,-29.4%,–,–
COc1ccc(N2C(=O)NC(=O)/C(=C\c3cn(C)c4ccccc34)C2=O)cc1,-4.32%,–,–
C/C1=C\[C@@H](C)C/C=C/[C@H]2[C@@H]3O[C@]3(C)[C@@H](C)[C@H]3[C@H](Cc4c[nH]c5ccccc45)NC(=O)[C@]32C(=O)/C=C/C(=O)[C@@H]1O,-62.6%,"23.1 µM [falling, single point]","29.1 µM [falling, single point]"
CN(C)C1(CNC(=O)c2ccc(NS(=O)(=O)c3ccc(Cl)c(Cl)c3)cc2)CCCCC1,-4.07%,"0.146 µM [rising, full curve, poor fit]",–
O=c1[nH]c(=S)n(Cc2ccc(F)cc2)c(O)c1/C=N/N1CCCCC1,-8.19%,"18.4 µM [rising, single point]","1.3 µM [falling, partial curve, poor fit]"
O=c1[nH]c2ccccc2n1CCCN1CCC(n2c(=O)[nH]c3cc(Cl)ccc32)CC1,11.8%,"16.4 µM [rising, single point]",–
CCN(CC)c1ccc(/C=N/c2sc3c(c2C#N)C2CCN3CC2)c(O)c1,-89%,"4.61 µM [falling, full curve]","23.1 µM [falling, partial curve]"
O=c1[nH]c(=O)n(-c2cccc(Cl)c2)c(O)c1C=NCCCN1CCOCC1,-6.55%,–,–
CCOC(=O)c1ccc(NC(=O)c2c(O)[nH]c(=O)[nH]c2=O)cc1,-98.5%,"16.4 µM [falling, partial curve, poor fit]","20.6 µM [falling, single point]"
Cc1ccc(NC(=O)CN2C(=O)CN=C(c3ccccc3)c3cc(Cl)ccc32)cc1,-47.4%,"9.2 µM [falling, partial curve]","11.6 µM [falling, partial curve, poor fit]"
CN1C2CCC1/C(=C/c1ccccn1)C(=O)/C2=C\c1ccccn1,-80.2%,"1.46 µM [falling, full curve]","16.4 µM [falling, partial curve]"
COC(=O)C1=C(c2ccc(OC(F)(F)F)cc2)C[C@@H]2CC[C@H]1N2C(=O)N1CCCC1,-13.3%,"6.51 µM [falling, single point]","2.59 µM [falling, single point]"
CCOC(=O)c1ccc(N=Cc2c(O)n(-c3ccccc3F)c(=S)[nH]c2=O)cc1,-10%,"29.1 µM [rising, single point]",–
CN(C)c1ccc(/C=C/c2cc[n+](C)c3ccccc23)cc1,-85.8%,"16.4 µM [falling, partial curve]","7.31 µM [falling, partial curve]"
CC(C)[C@H]1C(=O)O[C@H](C(C)C)C(=O)N(C)[C@@H](C(C)C)C(=O)O[C@H](C(C)C)C(=O)N(C)[C@@H](C(C)C)C(=O)O[C@H](C(C)C)C(=O)N1C,–,"5.17 µM [falling, partial curve, poor fit]",–
CC(C)n1c(=O)c(C=Nc2cccc([N+](=O)[O-])c2)c(O)n(CCc2ccccc2)c1=O,26.4%,"10.3 µM [rising, single point]",–
CC1=NN(Cc2c[nH]c3ccccc23)C(C)(C)C1,-33.1%,–,"11.6 µM [falling, partial curve, poor fit]"
CC(=O)Nc1ccc(S(=O)(=O)NC(CC(=O)N2CCC3(CC2)OCCO3)C(C)C)cc1 (configuration not stated),-17.6%,"0.651 µM [falling, single point]",–
CCOC(C(=O)OCCC[N+](C)(CC)CC)(c1ccccc1)c1ccccc1,-14.6%,"0.58 µM [falling, full curve]",–
O=C(O)CCn1cc(C=C2C(=O)NC(=O)NC2=O)c(-c2ccc(Br)cc2)n1,-6.75%,"2.91 µM [falling, single point]",–
CCn1c(O)c(C=NCc2cccs2)c(=O)[nH]c1=O,-24.6%,"6.51 µM [falling, partial curve]","0.82 µM [falling, full curve, poor fit]"
CCC(C)NC(=O)CN1C(=O)CN=C(c2ccccc2)c2ccccc21 (configuration not stated),17.6%,"6.51 µM [rising, single point]",–
CN(C)P(=O)(C(Cl)=C(N1CCCCC1)N1CCCCC1)N(C)C,2.09%,"1.16 µM [rising, full curve]",–

# Part of the list above, bar-delimited:
Structure (SMILES) | cell number change | AC50 [1] | AC50 [2]
O=c1[nH]c2ccccc2n1CCCN1CCC(n2c(=O)[nH]c3cc(Cl)ccc32)CC1 | 11.8% | 16.4 µM [rising, single point] | –
CCN(CC)c1ccc(/C=N/c2sc3c(c2C#N)C2CCN3CC2)c(O)c1 | -89% | 4.61 µM [falling, full curve] | 23.1 µM [falling, partial curve]
O=c1[nH]c(=O)n(-c2cccc(Cl)c2)c(O)c1C=NCCCN1CCOCC1 | -6.55% | – | –
CCOC(=O)c1ccc(NC(=O)c2c(O)[nH]c(=O)[nH]c2=O)cc1 | -98.5% | 16.4 µM [falling, partial curve, poor fit] | 20.6 µM [falling, single point]
